No constants are given. Whether binding was seen depends on the method and setting. Some entries that bind do so weakly or less than the wild type.
Columns and labels:
[1] = target: Targeting Protein for XKlp2 (TPX2), full length, GFP-tagged (Xenopus laevis) (UniProt Q6NUF4); test: SEC-MALS
[2] = target: Targeting Protein for XKlp2 (TPX2), full length, GFP-tagged (Xenopus laevis) (UniProt Q6NUF4); test: SEC

Chains of the proteins cited; added tags and fusions are not shown.
UniProt Q6NUF4, whole entry: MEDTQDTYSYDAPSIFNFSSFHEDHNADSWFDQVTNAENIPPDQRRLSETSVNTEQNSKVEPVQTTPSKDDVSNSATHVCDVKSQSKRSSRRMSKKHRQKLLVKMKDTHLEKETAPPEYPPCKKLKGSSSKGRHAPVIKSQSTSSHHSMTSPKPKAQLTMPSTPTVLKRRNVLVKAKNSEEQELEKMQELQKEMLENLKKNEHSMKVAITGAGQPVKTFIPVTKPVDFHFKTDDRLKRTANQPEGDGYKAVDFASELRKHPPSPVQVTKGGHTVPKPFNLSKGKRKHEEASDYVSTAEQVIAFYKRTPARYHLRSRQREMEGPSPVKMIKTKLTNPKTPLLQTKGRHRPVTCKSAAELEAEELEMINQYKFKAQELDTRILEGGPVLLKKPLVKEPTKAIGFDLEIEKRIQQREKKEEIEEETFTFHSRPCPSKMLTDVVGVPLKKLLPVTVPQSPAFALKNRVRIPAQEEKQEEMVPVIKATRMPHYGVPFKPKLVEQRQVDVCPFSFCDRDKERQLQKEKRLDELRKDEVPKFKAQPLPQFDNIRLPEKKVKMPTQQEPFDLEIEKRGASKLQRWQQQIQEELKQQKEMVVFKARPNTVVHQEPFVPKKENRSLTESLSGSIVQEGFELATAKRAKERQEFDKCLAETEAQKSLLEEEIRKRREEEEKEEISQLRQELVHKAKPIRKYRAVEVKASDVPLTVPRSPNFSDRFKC
UniProt P52297, whole entry: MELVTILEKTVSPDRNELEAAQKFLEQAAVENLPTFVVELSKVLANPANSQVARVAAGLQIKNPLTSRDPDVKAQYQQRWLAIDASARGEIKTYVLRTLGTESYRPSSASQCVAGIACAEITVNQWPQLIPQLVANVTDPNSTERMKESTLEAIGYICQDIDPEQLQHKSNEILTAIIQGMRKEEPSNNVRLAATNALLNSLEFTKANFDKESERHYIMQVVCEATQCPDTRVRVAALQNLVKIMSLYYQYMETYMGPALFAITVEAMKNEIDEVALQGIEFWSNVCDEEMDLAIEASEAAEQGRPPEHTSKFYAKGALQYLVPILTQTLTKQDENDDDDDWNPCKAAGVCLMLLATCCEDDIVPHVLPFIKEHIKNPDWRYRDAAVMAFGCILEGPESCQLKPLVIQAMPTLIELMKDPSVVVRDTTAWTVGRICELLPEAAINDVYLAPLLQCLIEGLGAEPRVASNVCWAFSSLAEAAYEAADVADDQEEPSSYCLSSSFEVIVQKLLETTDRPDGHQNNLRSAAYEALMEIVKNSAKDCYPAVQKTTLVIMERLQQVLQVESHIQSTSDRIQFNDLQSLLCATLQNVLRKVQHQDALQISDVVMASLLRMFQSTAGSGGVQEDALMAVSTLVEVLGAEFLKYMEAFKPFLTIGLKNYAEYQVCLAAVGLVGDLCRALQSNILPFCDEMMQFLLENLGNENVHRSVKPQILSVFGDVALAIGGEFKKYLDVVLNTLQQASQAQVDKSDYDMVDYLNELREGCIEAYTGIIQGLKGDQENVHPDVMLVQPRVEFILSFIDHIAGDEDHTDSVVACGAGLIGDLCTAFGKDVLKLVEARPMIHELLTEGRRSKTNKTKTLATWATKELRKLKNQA

Substance: importin-β (from UniProt P52297 1-876)
- binding [1]: binds weakly
- binding [2]: binds weakly
